# These are yes or no findings as the source states them, for the method shown. Binding seen in cells or lysates may run through a third protein. Some entries that bind do so weakly or less than the wild type. For part of these data: Tags and fused reporters may be left off the sequences shown.
# By UniProt entry, the sequences of proteins in these tests, tags left out. Where a name states a change or a piece, a line headed by the entry shows the natural chain unless it says otherwise.
# UniProt Q86WV6, whole entry: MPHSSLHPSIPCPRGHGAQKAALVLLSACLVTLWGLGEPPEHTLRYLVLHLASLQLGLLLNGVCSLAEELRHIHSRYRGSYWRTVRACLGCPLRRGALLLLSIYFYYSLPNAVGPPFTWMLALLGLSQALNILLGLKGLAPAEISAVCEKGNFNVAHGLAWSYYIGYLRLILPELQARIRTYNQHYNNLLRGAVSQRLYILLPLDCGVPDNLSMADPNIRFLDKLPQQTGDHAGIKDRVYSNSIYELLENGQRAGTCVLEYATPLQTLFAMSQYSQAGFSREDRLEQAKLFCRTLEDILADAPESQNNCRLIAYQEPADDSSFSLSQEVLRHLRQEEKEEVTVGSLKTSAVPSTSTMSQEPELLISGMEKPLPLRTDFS
# T1: viperin-mCherry (UniProt Q8WXG1)
# T1 sequence: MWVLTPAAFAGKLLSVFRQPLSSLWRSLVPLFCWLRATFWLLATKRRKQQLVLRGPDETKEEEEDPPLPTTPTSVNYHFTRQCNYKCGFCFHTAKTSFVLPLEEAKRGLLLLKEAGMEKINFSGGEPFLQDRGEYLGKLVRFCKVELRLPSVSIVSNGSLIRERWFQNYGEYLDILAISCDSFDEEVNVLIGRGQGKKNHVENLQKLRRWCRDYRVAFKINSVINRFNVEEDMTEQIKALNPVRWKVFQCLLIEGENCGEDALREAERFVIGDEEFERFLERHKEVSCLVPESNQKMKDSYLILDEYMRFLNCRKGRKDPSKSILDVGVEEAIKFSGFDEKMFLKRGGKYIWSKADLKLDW
# T2: viperin-flag (UniProt Q8WXG1)
# T2 sequence: T1 sequence
# B1: TBK1-myc (protein, UniProt Q9UHD2 1-729)
# chain: MQSTSNHLWLLSDILGQGATANVFRGRHKKTGDLFAIKVFNNISFLRPVDVQMREFEVLKKLNHKNIVKLFAIEEETTTRHKVLIMEFCPCGSLYTVLEEPSNAYGLPESEFLIVLRDVVGGMNHLRENGIVHRDIKPGNIMRVIGEDGQSVYKLTDFGAARELEDDEQFVSLYGTEEYLHPDMYERAVLRKDHQKKYGATVDLWSIGVTFYHAATGSLPFRPFEGPRRNKEVMYKIITGKPSGAISGVQKAENGPIDWSGDMPVSCSLSRGLQVLLTPVLANILEADQEKCWGFDQFFAETSDILHRMVIHVFSLQQMTAHKIYIHSYNTATIFHELVYKQTKIISSNQELIYEGRRLVLEPGRLAQHFPKTTEENPIFVVSREPLNTIGLIYEKISLPKVHPRYDLDGDASMAKAITGVVCYACRIASTLLLYQELMRKGIRWLIELIKDDYNETVHKKTEVVITLDFCIRNIEKTVKVYEKLMKINLEAAELGEISDIHTKLLRLSSSQGTIETSLQDIDSRLSPGGSLADAWAHQEGTHPKDRNVEKLQVLLNCMTEIYYQFKKDKAERRLAYNEEQIHKFDKQKLYYHATKAMTHFTDECVKKYEAFLNKSEEWIRKMLHLRKQLLSLTNQCFDIEEEVSKYQEYTNELQETLPQKMFTASSGIKHTMTPIYPSSNTLVEMTLGMKKLKEEMEGVVKELAENNHILERFGSLTMDGGLRNVDCL
# Assays:
# viperin-3’Δ17-mCherry = viperin-3’Δ17-mCherry (UniProt Q8WXG1); assay: co-IP
# viperin-5’Δ33-mCherry = viperin-5’Δ33-mCherry (UniProt Q8WXG1); assay: co-IP
# viperin-mCherry [1] = biological target: T1, viperin-mCherry; assay: co-IP
# viperin-flag = biological target: T2, viperin-flag; assay: proximity ligation
# viperin-mCherry [2] = biological target: T1, viperin-mCherry; assay: co-IP + cross-linking
Molecule,binding (viperin-3’Δ17-mCherry),binding (viperin-5’Δ33-mCherry),binding (viperin-mCherry [1]),binding (viperin-flag),binding (viperin-mCherry [2])
STING-myc (from UniProt Q86WV6 1-379),binds,binds,binds,,
endogenous STING (from UniProt Q86WV6 1-379),,,,binds,
B1,,,no binding,,no binding
